Measurements reported in PubChem BioAssay AID1508588 (Peter MacCallum Cancer Centre, 2020)

- Assay: 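Knock-downs boosting vemurafenib effects on melanoma cell growth or lactate release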 (primary screen)
- Cells: human WM266.4 melanoma cells (BRAF V600 mutant)
- Knock-down reagent: siRNA pool against human genes, 40 nM
- Time to read-out: 96 h from transfection to read-out
- Conditions: vemurafenib 300 nM (about IC25), added 48 h after transfection, for 48 h; comparison arm got DMSO vehicle only
- Detection: 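Cell gain (DAPI nuclei at end minus before drug, mean of two replicates) and medium lactate by absorbance per cell, both as ratio to non-targeting siRNA, also grouped into fold-change classes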
- Scale: cell gain with vemurafenib: higher = more cell gain than with non-targeting siRNA; lactate per cell with vemurafenib: higher = more lactate made per cell
- Active means: 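Enhancement is called by pairing each knock-down's vehicle-arm and drug-arm fold-change classes for viability or glycolysis; which class combinations qualify is not given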
- Calls: active = enhances vemurafenib effect; inactive = no enhancement seen
In all, the deposit lists about 18,000 reagents; this is a part drawn at random. 790 of all reagents (4.4%) count as active. 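Calls rest on a combination of fold-change classes in drug and vehicle arms, not all shown here.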 Unmarked entries are inactive.

The first 7 entries, ahead of the listing:
| gene | PubChem SID | cell gain with vemurafenib | lactate per cell with vemurafenib |
| --- | --- | --- | --- |
| SNUPN (snurportin 1) | SID152152206 | 0.57 | 1.47 |
| SPP1 (secreted phosphoprotein 1) | SID152153119 | 0.73 | 1.54 |
| ANKRD35 (ankyrin repeat domain 35) | SID152148083 | 0.92 | 0.64 |
| ENTPD6 (ectonucleoside triphosphate diphosphohydrolase 6) | SID134315586 | 0.34 | 0.72 |
| LRRN2 (leucine rich repeat neuronal 2) | SID135621963 | 0.56 | 0.88 |
| ABTB3 (ankyrin repeat and BTB domain containing 3) | SID135623014 | 0.66 | 0.72 |
| PCDHGA1 (protocadherin gamma subfamily A, 1) | SID134317508 | 0.05 | 2.73 |

The listing, from the first entry:
| gene | PubChem SID | cell gain with vemurafenib | lactate per cell with vemurafenib |
| --- | --- | --- | --- |
| SNUPN (snurportin 1) | SID152152206 | 0.57 | 1.47 |
| SPP1 (secreted phosphoprotein 1) | SID152153119 | 0.73 | 1.54 |
| ANKRD35 (ankyrin repeat domain 35) | SID152148083 | 0.92 | 0.64 |
| ENTPD6 (ectonucleoside triphosphate diphosphohydrolase 6) | SID134315586 | 0.34 | 0.72 |
| LRRN2 (leucine rich repeat neuronal 2) | SID135621963 | 0.56 | 0.88 |
| ABTB3 (ankyrin repeat and BTB domain containing 3) | SID135623014 | 0.66 | 0.72 |
| PCDHGA1 (protocadherin gamma subfamily A, 1) | SID134317508 | 0.05 | 2.73 |
| RPS5 (ribosomal protein S5) | SID152150604 | -0.06 | 1.7 |
| KIF19 (kinesin family member 19) | SID152150906 | -0.02 | 0.84 |
| PGRMC2 (progesterone receptor membrane component 2) | SID152151521 | 0.75 | 0.94 |
| MIEF1 (mitochondrial elongation factor 1) | SID134319953 | 0.39 | 1.44 |
| CCN4 (cellular communication network factor 4) | SID152155524 | 0.72 | 1.45 |
| CYP4F22 (cytochrome P450 family 4 subfamily F member 22) | SID152150509 | 1.06 | 0.48 |
| SMIM12 (small integral membrane protein 12) | SID152148301 | 0.73 | 0.88 |
| FGF19 (fibroblast growth factor 19) | SID135622583 | 0.98 | 0.4 |
| SNX5 (sorting nexin 5) | SID134316788 | 0.62 | 0.79 |
| ACTL7A (actin like 7A) | SID134316555 | 0.28 (active) | 0.3 |
| CRY1 (cryptochrome circadian regulator 1) | SID134319465 | 0.47 | 0.26 |
| FOLR2 (folate receptor beta) | SID152153621 | 0.34 | 0.74 |
| PDIA3 (protein disulfide isomerase family A member 3) | SID152150706 | 0.2 | 1.02 |
| CLIP4 (CAP-Gly domain containing linker protein family member 4) | SID135623651 | 0.48 | 0.66 |
| ITIH2 (inter-alpha-trypsin inhibitor heavy chain 2) | SID135623787 | 0.62 (active) | 0.48 |
| C1orf220 (chromosome 1 putative open reading frame 220) | SID134329620 | 0.27 | 1.56 |
| CCDC171 (coiled-coil domain containing 171) | SID134322333 | 0.51 | 1.04 |
| RGS17 (regulator of G protein signaling 17) | SID152152156 | 0.3 | 1.77 |
| FBXO38 (F-box protein 38) | SID135623465 | 0.61 | 1.31 |
| CX3CL1 (C-X3-C motif chemokine ligand 1) | SID152150864 | 0.98 | 0.84 |
| FHIT (fragile histidine triad diadenosine triphosphatase) | SID135620915 | 0.59 | 1.04 |
| LOXL4 (lysyl oxidase like 4) | SID152156555 | 1.16 | 0.66 |
| SLC46A2 | SID134322488 | 0.39 | 0.36 |
| PDK4 (pyruvate dehydrogenase kinase 4) | SID152155412 | 0.51 | 0.65 |
| IL15RA (interleukin 15 receptor subunit alpha) | SID135621473 | 0.51 | 1.34 |
| PDCD5 (programmed cell death 5) | SID134310472 | 0.71 | 1.12 |
| TMEM100 (transmembrane protein 100) | SID152150416 | 0.61 | 0.94 |
| RIOK1 (RIO kinase 1) | SID56479042 | 0.39 | 0.57 |
| ERCC2 (ERCC excision repair 2, TFIIH core complex helicase subunit) | SID134315391 | 0.53 | 0.82 |
| TMEM170A (transmembrane protein 170A) | SID134320009 | 0.36 | 1.73 |
| ZNF32 (zinc finger protein 32) | SID152154262 | 0.41 | 0.9 |
| CNP (2',3'-cyclic nucleotide 3' phosphodiesterase) | SID152153604 | 0.48 | 0.78 |
| FMO1 (flavin containing dimethylaniline monoxygenase 1) | SID134314020 | 0.36 | 1.06 |
| GPLD1 (glycosylphosphatidylinositol specific phospholipase D1) | SID135621840 | 0.71 | 0.73 |
| FEZF1 (FEZ family zinc finger 1) | SID152149764 | 0.9 | 0.64 |
| GATD1 (glutamine amidotransferase class 1 domain containing 1) | SID135623631 | 0.36 | 1.14 |
| BORCS7 (BLOC-1 related complex subunit 7) | SID152149719 | 0.65 | 0.88 |
| NRROS (negative regulator of reactive oxygen species) | SID135625028 | 0.63 | 1.97 |
| KCNH4 (potassium voltage-gated channel subfamily H member 4) | SID134311652 | 0.77 | 0.77 |
| SALL2 (spalt like transcription factor 2) | SID135624647 | 0.65 | 0.25 |
| TRIM37 (tripartite motif containing 37) | SID152153287 | 0.93 | 0.7 |
| KASH5 (KASH domain containing 5) | SID135623016 | 0.69 | 0.57 |
| GAS2L2 (growth arrest specific 2 like 2) | SID152150250 | 0.47 | 2.01 |
| SRP14 (signal recognition particle 14) | SID152155247 | 0.11 | 2.64 |
| TSHZ3 (teashirt zinc finger homeobox 3) | SID152147225 | 0.96 | 0.9 |
| PRDM10 (PR/SET domain 10) | SID134312152 | 0.74 | 1.34 |
| DEFB134 (defensin beta 134) | SID135625414 | 0.32 | 1.38 |
| DYNLT4 (dynein light chain Tctex-type 4) | SID135624249 | 0.91 | 1.17 |
| PLEKHM3 (pleckstrin homology domain containing M3) | SID135624742 | 0.54 (active) | 0.64 |
| EXOC2 (exocyst complex component 2) | SID152151170 | 1.11 | 0.8 |
| SCML2 (Scm polycomb group protein like 2) | SID135623911 | 0.18 | 1.45 |
| NFX1 (nuclear transcription factor, X-box binding 1) | SID134311864 | 0.7 | 1.2 |
| OR8U8 (olfactory receptor family 8 subfamily U member 8) | SID135625174 | 1.24 | 0.6 |
| RGPD1 (RANBP2 like and GRIP domain containing 1) | SID135625437 | 0.92 | 0.8 |
| ARL10 (ARF like GTPase 10) | SID152150727 | 0.55 | 1.04 |
| OBP2B (odorant binding protein 2B) | SID152151145 | 0.83 | 1.15 |
| GLMN (glomulin) | SID152146914 | 0.4 | 0.99 |
| TBX1 (T-box transcription factor 1) | SID134316484 | 0.84 | 0.74 |
| NPIPB7 (nuclear pore complex interacting protein family member B7) | SID135625318 | 0.62 (active) | 0.46 |
| CHMP2A (charged multivesicular body protein 2A) | SID134323975 | -0.15 | 5.93 |
| DNAJC15 (DnaJ heat shock protein family (Hsp40) member C15) | SID152149578 | 0.51 | 1.5 |
| CLCN7 (Cl-/H+ antiporter 7) | SID134311574 | -0.06 (active) | 0.37 |
| EDC4 (enhancer of mRNA decapping 4) | SID134320618 | 0.62 (active) | 0.45 |
| SHISAL2A (shisa like 2A) | SID135623604 | 0.26 | 1.52 |
| DAXX (death domain associated protein) | SID152155746 | 1.07 | 0.72 |
| LDLRAD1 (low density lipoprotein receptor class A domain containing 1) | SID135624689 | 0.65 | 1.23 |
| COTL1 (coactosin like F-actin binding protein 1) | SID134317341 | 0.04 | 2.37 |
| TRIM68 (tripartite motif containing 68) | SID152155085 | 0.75 | 0.74 |
| FADS6 (fatty acid desaturase 6) | SID152152297 | 0.48 | 1.04 |
| HAT1 (histone acetyltransferase 1) | SID152148849 | 0.96 | 0.6 |
| SAR1A (secretion associated Ras related GTPase 1A) | SID135623201 | 1.08 | 1.4 |
| GMPPB (GDP-mannose pyrophosphorylase B) | SID134313788 | 0.6 | 0.98 |
| G2E3 (G2/M-phase specific E3 ubiquitin protein ligase) | SID134312137 | 0.64 (active) | 0.54 |
| PTP4A2 (protein tyrosine phosphatase 4A2) | SID135621704 | 0.43 | 2.03 |
| ORM2 (orosomucoid 2) | SID134315482 | 0.51 | 1.29 |
| GBA1 (glucosylceramidase beta 1) | SID152156489 | 0.13 | 1.25 |
| SLC25A13 | SID135621378 | 0.99 | 0.38 |
